Results from paper PMC12574955, “The Ync13–Rga7–Rng10 complex selectively coordinates secretory vesicle trafficking and secondary septum formation during cytokinesis” (PLOS Biology, 2025).
These are yes or no findings as the source states them, for the method shown. Binding seen in cells or lysates may run through a third protein. Some results given as binding are weak or reduced against the parent protein; the word gives no strength. Sequences can lack the tags named with a protein.

Biological target: T1, Rga7-mEGFP (Schizosaccharomyces pombe) (UniProt O94466)
T1 sequence: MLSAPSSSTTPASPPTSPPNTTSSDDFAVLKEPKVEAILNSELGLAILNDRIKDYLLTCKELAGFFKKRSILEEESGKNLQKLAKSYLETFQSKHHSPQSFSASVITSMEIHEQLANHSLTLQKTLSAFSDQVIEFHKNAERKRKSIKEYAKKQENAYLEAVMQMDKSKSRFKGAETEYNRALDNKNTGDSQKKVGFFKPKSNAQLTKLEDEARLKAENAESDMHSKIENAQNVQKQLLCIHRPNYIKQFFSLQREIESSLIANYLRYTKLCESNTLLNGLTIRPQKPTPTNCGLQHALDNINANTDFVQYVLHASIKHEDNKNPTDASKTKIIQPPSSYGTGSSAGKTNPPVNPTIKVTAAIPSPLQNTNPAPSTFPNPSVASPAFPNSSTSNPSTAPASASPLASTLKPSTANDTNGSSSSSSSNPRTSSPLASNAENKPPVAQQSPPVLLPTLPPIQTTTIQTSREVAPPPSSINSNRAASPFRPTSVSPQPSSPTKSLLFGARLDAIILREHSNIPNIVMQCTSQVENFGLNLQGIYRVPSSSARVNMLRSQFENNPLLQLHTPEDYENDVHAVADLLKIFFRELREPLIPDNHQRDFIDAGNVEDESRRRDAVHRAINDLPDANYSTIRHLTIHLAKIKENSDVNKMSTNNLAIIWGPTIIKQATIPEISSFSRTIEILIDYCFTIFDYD
Assay: co-IP; S. pombe cell extracts, proteins under native promoters; polyclonal GFP antibody on protein G Dynabeads, 2 h at 4°C; IP buffer 50 mM HEPES pH 7.5, 150 mM NaCl, 1 mM EDTA, 0.1% NP-40; anti-Myc and anti-GFP blots

B1: Smi1-13Myc (protein, UniProt O14362 1-504)
chain: MSKNSFSSMANSVTSFFQSLTTPNRHADPSFRPSRREKQSRLPTPLQSVAASAYSGVNASQTGLLNDSRANSVTNLPNSSNTSQVGLNNISPAPVGYVPGSKTNELANNSMEMQEISPNGSASLPPPVSESWRRIDRWAEENYYELYCQLCYGATVADVDSLEYELECTLPRDVRESLYIHDGQDRGGQPTGILFGVTLLDIEEIEEESELWRRVAQSYAEATLAGKIDQAVASRQASFPPGAVQCVYAHPGWIPLAKDFVGNNIAIDLAPGPAGQWGQVILFGRDQDTKYVVARSWADFLAIVAYDMENGKWLVDEDDNSLRLIYGPPREQWSYLDILKYRARKAERRKFKKRDGKRTTRPIPKSIAKEDVTNSANSTAPSTGTTVLDDGLDNNYEDIPLYGPSKDEELIKKEELEADTDLGLINTSEINQPANLPDEPTAETSNPVSATTVEAVTTTADNKDEEKNDHVTEDVSQNSTIAEASSLQAQEEEKEIETTSVKQE
Question: For B1, which binding is on record?
Answer: binds
